In US7070969 (UNIVERSITY OF QUEENSLAND, dated 2006):
No constants are given. Whether binding was seen depends on the method and setting. Some entries that bind do so weakly or less than the wild type.

Protein sequences, listed by entry. Tags and fused reporters are not part of them. Residues count along the entry.
UniProt P00747, residues 97-810: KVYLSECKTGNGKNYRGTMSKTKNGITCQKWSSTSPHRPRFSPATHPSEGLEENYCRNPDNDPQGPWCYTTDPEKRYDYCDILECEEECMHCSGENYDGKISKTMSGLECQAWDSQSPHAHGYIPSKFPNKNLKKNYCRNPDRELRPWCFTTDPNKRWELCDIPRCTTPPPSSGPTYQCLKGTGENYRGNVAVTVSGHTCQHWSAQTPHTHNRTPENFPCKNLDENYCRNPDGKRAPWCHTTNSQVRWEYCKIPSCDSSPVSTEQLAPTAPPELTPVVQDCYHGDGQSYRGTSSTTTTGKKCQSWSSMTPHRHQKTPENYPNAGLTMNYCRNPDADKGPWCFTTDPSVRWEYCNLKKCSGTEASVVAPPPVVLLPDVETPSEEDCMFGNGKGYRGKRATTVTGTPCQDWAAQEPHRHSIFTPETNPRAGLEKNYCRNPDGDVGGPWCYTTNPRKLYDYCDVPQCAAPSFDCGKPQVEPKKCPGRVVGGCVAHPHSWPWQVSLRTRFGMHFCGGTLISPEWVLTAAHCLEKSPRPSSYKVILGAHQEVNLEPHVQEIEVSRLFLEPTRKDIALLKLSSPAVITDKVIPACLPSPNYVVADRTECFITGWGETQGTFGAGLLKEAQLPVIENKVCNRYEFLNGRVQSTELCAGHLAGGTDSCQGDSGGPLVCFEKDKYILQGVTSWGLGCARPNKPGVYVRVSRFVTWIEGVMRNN

What was measured:
Human plasmin (human) [1] = molecular target: Human plasmin (human) (UniProt P00747); experiment: enzyme specificity; method not described
Human plasmin (human) [2] = molecular target: Human plasmin (human) (UniProt P00747); experiment: plasmin inhibition kinetics

| Binder | binding (Human plasmin (human) [1]) | binding (Human plasmin (human) [2]) |
| --- | --- | --- |
| Textilinin 1 (other, also called Txln 1) KDRPDFCELPADTGPCRVRFPSFYYNPDEKKCLEFIYGGCEGNANNFITKEECESTCAA | binds | binds |
| Textilinin 2 (other, also called Txln 2) KDRPELCELPPDTGPCRVRFPSFYYNPDEQKCLEFIYGGCEGNANNFITKEECESTCAA | binds | binds |
